Data taken from ChEMBL document CHEMBL3988442, “University of Dundee, Small-Polar-MMV Screening Library” (2021).

Results are given as percent effect. How 0% and 100% were set is not recorded. Most values in the screen are low, and negative values occur. The compounds are a random part of those screened. Two or more numbers in one place are separate tests of the same structure; such repeats can differ widely.

Mtb glucose medium: 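Growth of Mycobacterium tuberculosis over 3 days (7H9 medium with glucose and tyloxapol); the read-out is not stated. Compounds at 50 µM. Higher reads as more growth inhibition (inferred: compounds with an IC50 in retests scored well above the rest). Of about 69,000 compounds tested this way, about 760 (1.1%) reached 50% or more in at least one test.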
Mtb cholesterol medium: 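Phenotypic screen: M. tuberculosis growth, cholesterol and DPPC medium, 4 days; the read-out is not stated. Compounds at 50 µM. Higher reads as more growth inhibition (inferred: compounds with an IC50 in retests scored well above the rest). About 69,000 compounds were tested under these conditions; 0.54% (about 370) showed 50% or more at least once.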

| # | SMILES | Mtb glucose medium | Mtb cholesterol medium |
|---|---|---|---|
| 1 | `CCn1nc(C)c(CNC(=O)C2COc3ccccc3C2)c1C` (centres undefined) | 7.349 | -9.423 |
| 2 | `COc1ccc(CNCc2ccnc(N3CCCC3)c2)c(OC)c1.Cl` | 8.492 | -6.506 |
| 3 | `Cc1cc(C)c(CNC(=O)C2CCCN(c3cnccn3)C2)c(=O)[nH]1` (centres undefined) | -30.96 | -4.368 |
| 4 | `Cc1csc(CCCNC(C)CC(=O)Nc2ccc(F)cc2)n1` (centres undefined) | 19.4 | 22.12 |
| 5 | `O=C(O)C1(Cc2ccccc2F)CCCN(c2ncnc3[nH]ccc23)C1` (centres undefined) | -16.2 | -20.1 |
| 6 | `COc1cc(S(=O)(=O)N2CCc3ccc(Cl)cc32)cc(C(=O)O)c1OC` | 6.208 | 10.22 |
| 7 | `CCCn1nnnc1COc1cc(OC)ccc1C(N)=O` | 4.58 | 0.2732 |
| 8 | `O=C1CN(c2ccc(CNC(=O)Nc3nnc(C4CC4)s3)cc2)CCN1` | -11.1 | -11.56 |
| 9 | `CCN(CC)c1nc2ccsc2c(=O)n1CCC(=O)NCc1cccs1` | -21.73 and 1.855 | -6.143 |
| 10 | `[H][C@@]12CS(=O)(=O)C[C@]1([H])N(Cc1cnc(C)nc1)CCN2C(=O)N(CC)CC` | -4.409 | 2.617 |
| 11 | `[H][C@@]12CCN(C[C@@H]1C(=O)N1CCOCC1)[C@@H](Cn1cc(COC)nn1)C2` | -20.73 and 0.8248 | 9.336 |
| 12 | `O=c1cc(N2CCCC2)cnn1Cc1noc(C2CCCO2)n1` (centres undefined) | 5.415 and -4.482 | -5.36 |
| 13 | `O=C(C1CC1)N1CCC2(CC1)CNCCO2` | -6.941 and -48.32 | -23.21 |
| 14 | `CCCN(CCO)C(=O)C1CCC(=O)N(CCc2ccc(Cl)cc2)C1` (centres undefined) | -1.786 and -11.95 | -21.48 |
| 15 | `N#Cc1cccnc1N1CCC2(CCCN(C3CCOCC3)C2=O)C1` (centres undefined) | 3.413 | -0.1554 |
| 16 | `COc1cccn(CC(=O)N2CCCC3(CCCCC3)C2)c1=O` | 9.265 | 6.46 |
| 17 | `O=C(O)C(F)(F)F.[H][C@@]12CCN(Cc3ccoc3)CC[C@]1([H])[C@@H](COC)CN(CC1CC1)C2=O` | 15.98 and -0.3421 | 23.14 |
| 18 | `Cc1ccc(=O)n(CC2(O)CCN(Cc3ccsc3)CC2)n1` | -15.13 | -24.18 |
| 19 | `[H][C@@]12COC[C@@H](CC(=O)N3CCCCO3)[C@]1([H])CN(S(C)(=O)=O)C2` | 14.91 | 2.073 |
| 20 | `Cn1ccnc1C(NCc1ccccc1)c1ccc(F)cc1` (centres undefined) | 2.965 | -2.602 |
| 21 | `Cc1cc(C)n(CC(=O)Nc2cc(-c3ccncc3)[nH]n2)n1` | 23.7 | 0.709 |
| 22 | `CN1CCC(c2cc(CCO)ncn2)C1` (centres undefined) | 18.33 | 3.931 |
| 23 | `CCc1nc(CN(C(C)=O)C2CCN(Cc3csc(C)n3)C2)no1` (centres undefined) | -19.45 | -25.92 |
| 24 | `CC(C)NC(=O)NC[C@H]1OC[C@@H](NCc2ccc(S(C)(=O)=O)cc2)[C@@H]1O` | 14.86 and -5.667 | -3.884 |
| 25 | `COc1ccc2nc(CNC(=O)c3cc(C(C)C)no3)[nH]c2c1` | -50.09 | -36.92 |
| 26 | `CCC(CNC(=O)COC)Oc1cccc(F)c1` (centres undefined) | 21.78 and 4.049 | -3.261 |
| 27 | `O=C(CCc1nc(Cl)n[nH]1)N1C[C@@H](CN2CCCCCC2)[C@@H](CO)C1` | -8.019 | 5.785 |
| 28 | `c1cc(CN2CCCC(c3ccnc4nccn34)C2)ccn1` (centres undefined) | -27.56 | 10.38 and -2.533 |
| 29 | `COc1cc(Cl)cc(C(=O)N2CCC3(CCCNC3)C2)c1` (centres undefined) | -29.67 | -2.88 |
| 30 | `Cc1nccn1C1CCCN(C(=O)Cc2cn3ccccc3n2)C1` (centres undefined) | -27.66 | -24.9 |
| 31 | `Cc1cc(S(C)(=O)=O)c(C)c(S(=O)(=O)NCC2CCCO2)c1` (centres undefined) | -11.08 and -18.89 | -5.312 |
| 32 | `O=C(O)C(F)(F)F.[H][C@]12CCCC(OC)[C@@]1([H])CN(Cc1csc(C)n1)C2` (some centres undefined) | -3.807 | -11.76 |
| 33 | `CC(=O)N1CCCN(C(=O)CCc2c(C)nc3ccnn3c2C)CC1` | 22.83 | -10.91 |
| 34 | `Cc1nn(C)c(C)c1CC(C)NC(=O)NCc1ccoc1C` (centres undefined) | 0.1834 and 3.882 | 17.82 |
| 35 | `Cn1cc(NC(=O)Nc2cccc3cccnc23)ccc1=O` | -10.22 | -0.4762 |
| 36 | `Cc1cc(NC(=O)CN2CCCC2Cn2nc(C)nc2C)on1` (centres undefined) | 19.58 | -1.244 |
| 37 | `[H][C@@]12CN(S(C)(=O)=O)C[C@]1([H])OCC(=O)N2CC1CC1` | -19.47 and 7.007 | 8.739 |
| 38 | `O=C(c1ccncc1)N1CCc2ncnc(C3CCOC3)c2CC1` (centres undefined) | -15.7 | -1.923 and -12.54 |
| 39 | `COc1ccc2c(c1)OC1(CCN(Cc3ccccc3C)CC1)CC2=O` | 3.485 | 5.396 |
| 40 | `O=C(O)C(F)(F)F.O=C(O)C(F)(F)F.[H][C@]12C[C@@H](CN3CCCC3)N(c3nccs3)[C@@]1([H])CCN(C(C)=O)C2` | 7.447 | -1.388 |
| 41 | `Cc1[nH]nc(CCC(=O)N2CCc3ncnc(NCCO)c3CC2)c1C` | 2.135 | -4.955 |
| 42 | `CC1CCCCN1C(=O)c1ccc(Br)s1` (centres undefined) | 24.96 | 15.31 |
| 43 | `COc1cccc(N2CCN(Cc3ccc4[nH]ccc4c3)CC2=O)c1` | 24.73 | 12.2 |
| 44 | `NCC(CO)Cc1ccc(C(F)(F)F)cc1` (centres undefined) | 17.47 | -25.91 |
| 45 | `Cc1nc(-c2ccsc2)ccc1C(=O)NC(C)CN1CCOCC1` (centres undefined) | 7.172 | 7.477 |
| 46 | `COCC(=O)N1CCC2(C1)c1ccccc1S(=O)(=O)N2CCC(C)C` (centres undefined) | -4.497 | -28.46 |
| 47 | `O=C(O)CCc1cccc(C2CCCN2Cc2cccc(Cl)c2)n1` (centres undefined) | -34.55 | -23 |
| 48 | `O=C(NCc1ccccn1)Nc1cc(C(F)(F)F)c[nH]c1=O` | 29.73 | -5.054 |
| 49 | `CC(C)c1ccc(NS(=O)(=O)CC2=NC(=O)n3cccc3C2=O)cc1` | 49.79 | 28.22 |
| 50 | `Cc1ccc(NC2CCN(C(=O)c3cc[nH]n3)CC2)nn1` | -21.09 | 4.153 |
| 51 | `CNc1cc2c(nn1)CCN(C(=O)c1cc(C)n(C3CC3)c1C)C2` | 4.66 | -27.24 |
| 52 | `CC1CN(c2ncnc3sccc23)CCN1c1nccs1` (centres undefined) | 36.27 | 24.22 |
| 53 | `Cc1nnn2c1COC(CNCc1ccncc1)C2` (centres undefined) | -9.796 and -23.42 | 0.1336 |
| 54 | `O=C(c1ccncc1)N1CCCN(Cc2nnc(C3CC3)o2)CC1` | 6.528 | 6.216 |
| 55 | `COCc1ccccc1C(=O)N1CCN(C2=NCC(C)(C)S2)CC1` | 3.782 | -6.113 |
| 56 | `CC(C)(C)c1nccc(N2CCC(OCCN3CCCCC3)C2)n1` (centres undefined) | 6.605 | 6.165 |
| 57 | `CC1(C)CC(NC(=O)c2cnn(-c3ccccc3F)c2N)CC(C)(C)N1` | -14.58 | -19.57 |